The record followed here is patent publication US20110313131 (published 2011).

The nature of this data set: peptide synthesis. The conditions noted are these: purification step.

As to (Aib^8,35)GLP-1(7-36)NH2, the “final purity (method not given)” value runs as follows: (run 1) 97.0%; (run 2) 97.2%; (run 3) 97.4%; (run 4) 97.1%; (run 5) 96.7%. This substance came in with a step yield (run 1) of 87%; a step yield (run 2) of 93%; a step yield (run 3) of 98%; a step yield (run 4) of 99%; a step yield (run 5) of 86%.
